# The other results are listed elsewhere or left out.
# B1: Endo180d1-D4 (Homo sapiens), Q9UBG0 (protein)
# chain: MGPGRPAPAPWPRHLLRCVLLLGCLHLGRPGAPGDAALPEPNVFLIFSHGLQGCLEAQGGQVRVTPACNTSLPAQRWKWVSRNRLFNLGTMQCLGTGWPGTNTTASLGMYECDREALNLRWHCRTLGDQLSLLLGARTSNISKPGTLERGDQTRSGQWRIYGSEEDLCALPYHEVYTIQGNSHGKPCTIPFKYDNQWFHGCTSTGREDGHLWCATTQDYGKDERWGFCPIKSNDCETFWDKDQLTDSCYQFNFQSTLSWREAWASCEQQGADLLSITEIHEQTYINGLLTGYSSTLWIGLNDLDTSGGWQWSDNSPLKYLNWESDQPDNPSEENCGVIRTESSGGWQNRDCSIALPYVCKKKPNATAEPTPPDRWANVKVECEPSWQPFQGHCYRLQAEKRSWQESKKACLRGGGDLVSIHSMAELEFITKQIKQEVEELWIGLNDLKLQMNFEWSDGSLVSFTHWHPFEPNNFRDSLEDCVTIWGPEGRWNDSPCNQSLPSICKKAGQLSQGAAEEDHGCRKGWTWHSPSCYWLGEDQVTYSEARRLCTDHGSQLVTITNRFEQAFVSSLIYNWEGEYFWTALQDLNSTGSFFWLSGDEVMYTHWNRDQPGYSRGGCVALATGSAMGLWEVKNCTSFRARYICRQSLGTPVTPELPGPDPTPSLTGSCPQGWASDTKLRYCYKVFSSERLQDKKSWVQAQGACQELGAQLLSLASYEEEHFVANMLNKIFGESEPEIHEQHWFWIGLNRRDPRGGQSWRWSDGVGFSYHNFDRSRHDDDDIRGCAVLDLASLQWVAMQCDTQLDWICKIPRGTDVREPDDSPQGRREWLRFQEAEYKFFEHHSTWAQAQRICTWFQAELTSVHSQAELDFLSHNLQKFSRAQEQHWWIGLHTSESDGRFRWTDGSIINFISWAPGKPRPVGKDKKCVYMTASREDWGDQRCLTALPYICKRSNVTKETQPPDLPTTALGGCPSDWIQFLNKCFQVQGQEPQSRVKWSEAQFSCEQQEAQLVTITNPLEQAFITASLPNVTFDLWIGLHASQRDFQWVEQEPLMYANWAPGEPSGPSPAPSGNKPTSCAVVLHSPSAHFTGRWDDRSCTEETHGFICQKGTDPSLSPSPAALPPAPGTELSYLNGTFRLLQKPLRWHDALLLCESHNASLAYVPDPYTQAFLTQAARGLRTPLWIGLAGEEGSRRYSWVSEEPLNYVGWQDGEPQQPGGCTYVDVDGAWRTTSCDTKLQGAVCGVSSGPPPPRRISYHGSCPQGLADSAWIPFREHCYSFHMELLLGHKEARQRCQRAGGAVLSILDEMENVFVWEHLQSYEGQSRGAWLGMNFNPKGGTLVWQDNTAVNYSNWGPPGLGPSMLSHNSCYWIQSNSGLWRPGACTNITMGVVCKLPRAEQSSFSPSALPENPAALVVVLMAVLLLLALLTAALILYRRRQSIERGAFEGARYSRSSSSPTEATEKNILVSDMEMNEQQE
# Columns and labels:
# Experiment in all cases: glycan array binding signal (z-score within array); higher = stronger binding
# Conditions in all cases: glycan notation: IUPAC condensed, linker removed
# Fuc(a1-2)Gal = target: Fuc(a1-2)Gal
# In short: (§1)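 Glycan array binding is given as a within-array Z-score, which can be read as non-binding when negative. The arrays, 3228 of them, came from the Consortium for Functional Glycomics database and were retained only where the protein sequence was available. Z-scores were averaged across arrays of the same protein sequence at different concentrations or buffers and across linkers.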
# Fuc(a1-2)Gal(b1-3)GalNAc = target: Fuc(a1-2)Gal(b1-3)GalNAc
# In short: as §1
# [1] = target: Fuc(a1-2)Gal(b1-3)GalNAc(a1-3)[Fuc(a1-2)]Gal(b1-4)Glc
# In short: as §1
# [2] = target: Fuc(a1-2)Gal(b1-3)GalNAc(a1-3)[Fuc(a1-2)]Gal(b1-4)GlcNAc
# In short: as §1
# [3] = target: Fuc(a1-2)Gal(b1-3)GalNAc(b1-3)Gal
# In short: as §1
# [4] = target: Fuc(a1-2)Gal(b1-3)GalNAc(b1-3)Gal(a1-4)Gal(b1-4)Glc
# In short: as §1
# [5] = target: Fuc(a1-2)Gal(b1-3)GalNAc(b1-4)[Neu5Ac(a2-3)]Gal(b1-4)Glc
# In short: as §1
# Fuc(a1-2)Gal(b1-3)GlcNAc = target: Fuc(a1-2)Gal(b1-3)GlcNAc
# In short: as §1
# [6] = target: Fuc(a1-2)Gal(b1-3)GlcNAc(b1-2)Man(a1-3)[Fuc(a1-2)Gal(b1-3)GlcNAc(b1-2)Man(a1-6)]Man(b1-4)GlcNAc(b1-4)GlcNAc
# In short: as §1
# [7] = target: Fuc(a1-2)Gal(b1-3)GlcNAc(b1-2)Man(a1-3)[Fuc(a1-2)Gal(b1-3)GlcNAc(b1-2)Man(a1-6)]Man(b1-4)GlcNAc(b1-4)[Fuc(a1-6)]GlcNAc
# In short: as §1
# [8] = target: Fuc(a1-2)Gal(b1-3)GlcNAc(b1-3)Gal(b1-4)Glc
# In short: as §1
# [9] = target: Fuc(a1-2)Gal(b1-3)GlcNAc(b1-3)GalNAc
# In short: as §1
# [10] = target: Fuc(a1-2)Gal(b1-3)GlcNAc(b1-3)[Fuc(a1-2)Gal(b1-3)GlcNAc(b1-6)]GalNAc
# In short: as §1
# [11] = target: Fuc(a1-2)Gal(b1-3)GlcNAc(b1-3)[Gal(b1-4)GlcNAc(b1-6)]Gal(b1-4)Glc
# In short: as §1
# [12] = target: Fuc(a1-2)Gal(b1-3)GlcNAc(b1-3)[Neu5Ac(a2-6)Gal(b1-4)GlcNAc(b1-6)]Gal(b1-4)Glc
# In short: as §1
# [13] = target: Fuc(a1-2)Gal(b1-3)GlcNAc6S
# In short: as §1
# [14] = target: Fuc(a1-2)Gal(b1-3)[Fuc(a1-4)]GlcNAc
# In short: as §1
# [15] = target: Fuc(a1-2)Gal(b1-3)[Fuc(a1-4)]GlcNAc(b1-2)Man(a1-3)[Fuc(a1-2)Gal(b1-3)[Fuc(a1-4)]GlcNAc(b1-2)Man(a1-3)]Man(b1-4)GlcNAc(b1-4)GlcNAc
# In short: as §1
# [16] = target: Fuc(a1-2)Gal(b1-3)[Fuc(a1-4)]GlcNAc(b1-2)Man(a1-3)[Fuc(a1-2)Gal(b1-3)[Fuc(a1-4)]GlcNAc(b1-2)Man(a1-6)]Man(b1-4)GlcNAc(b1-4)[Fuc(a1-6)]GlcNAc(b1-4)[Fuc(a1-6)]GlcNAc
# In short: as §1
# [17] = target: Fuc(a1-2)Gal(b1-3)[Fuc(a1-4)]GlcNAc(b1-3)[Fuc(a1-3)[Gal(b1-4)]GlcNAc(b1-6)]Gal(b1-4)Glc
# In short: as §1
# [18] = target: Fuc(a1-2)Gal(b1-3)[Fuc(a1-4)]GlcNAc(b1-3)[Gal(b1-4)GlcNAc(b1-6)]Gal(b1-4)Glc
# In short: as §1
# [19] = target: Fuc(a1-2)Gal(b1-4)Fuc(a1-3)]GlcNAc(b1-2)Man(a1-3)[Fuc(a1-2)Gal(b1-4)[Fuc(a1-3)]GlcNAc(b1-2)Man(a1-6)]Man(b1-4)GlcNAc(b1-4)GlcNAc
# In short: as §1
# Fuc(a1-2)Gal(b1-4)Glc = target: Fuc(a1-2)Gal(b1-4)Glc
# In short: as §1
# Fuc(a1-2)Gal(b1-4)Glc6S = target: Fuc(a1-2)Gal(b1-4)Glc6S
# In short: as §1
# Fuc(a1-2)Gal(b1-4)GlcNAc = target: Fuc(a1-2)Gal(b1-4)GlcNAc
# In short: as §1
# [20] = target: Fuc(a1-2)Gal(b1-4)GlcNAc(b1-2)Man
# In short: as §1
# [21] = target: Fuc(a1-2)Gal(b1-4)GlcNAc(b1-2)Man(a1-3)[Fuc(a1-2)Gal(b1-4)GlcNAc(b1-2)Man(a1-6)]Man(b1-4)GlcNAc(b1-4)GlcNAc
# In short: as §1
# [22] = target: Fuc(a1-2)Gal(b1-4)GlcNAc(b1-2)Man(a1-3)[Fuc(a1-2)Gal(b1-4)GlcNAc(b1-2)Man(a1-6)]Man(b1-4)GlcNAc(b1-4)[Fuc(a1-6)]GlcNAc
# In short: as §1
# [23] = target: Fuc(a1-2)Gal(b1-4)GlcNAc(b1-2)[Fuc(a1-2)Gal(b1-4)GlcNAc(b1-4)]Man(a1-3)[Fuc(a1-2)Gal(b1-4)GlcNAc(b1-2)Man(a1-6)]Man(b1-4)GlcNAc(b1-4)GlcNAc
# In short: as §1
# [24] = target: Fuc(a1-2)Gal(b1-4)GlcNAc(b1-3)Gal(b1-4)GlcNAc
# In short: as §1
binder,measurement,setting,value
B1,glycan array binding signal (z-score),Fuc(a1-2)Gal,0.059
same,glycan array binding signal (z-score),Fuc(a1-2)Gal(b1-3)GalNAc,-0.511
same,glycan array binding signal (z-score),[1],0.755
same,glycan array binding signal (z-score),[2],-0.616
same,glycan array binding signal (z-score),[3],0.078
same,glycan array binding signal (z-score),[4],-0.159
same,glycan array binding signal (z-score),[5],-0.109
same,glycan array binding signal (z-score),Fuc(a1-2)Gal(b1-3)GlcNAc,0.974
same,glycan array binding signal (z-score),[6],0.403
same,glycan array binding signal (z-score),[7],-0.446
same,glycan array binding signal (z-score),[8],-0.333
same,glycan array binding signal (z-score),[9],-0.507
same,glycan array binding signal (z-score),[10],0.368
same,glycan array binding signal (z-score),[11],-0.323
same,glycan array binding signal (z-score),[12],0.005
same,glycan array binding signal (z-score),[13],1.24
same,glycan array binding signal (z-score),[14],0.276
same,glycan array binding signal (z-score),[15],0.451
same,glycan array binding signal (z-score),[16],-0.37
same,glycan array binding signal (z-score),[17],-1.06
same,glycan array binding signal (z-score),[18],-0.341
same,glycan array binding signal (z-score),[19],4.92
same,glycan array binding signal (z-score),Fuc(a1-2)Gal(b1-4)Glc,-0.398
same,glycan array binding signal (z-score),Fuc(a1-2)Gal(b1-4)Glc6S,-0.741
same,glycan array binding signal (z-score),Fuc(a1-2)Gal(b1-4)GlcNAc,-0.365
same,glycan array binding signal (z-score),[20],-0.187
same,glycan array binding signal (z-score),[21],-0.976
same,glycan array binding signal (z-score),[22],0.245
same,glycan array binding signal (z-score),[23],-0.638
same,glycan array binding signal (z-score),[24],-0.377

# Reformatted tab-delimited: part of the list above
binder	measurement	setting	value
B1	glycan array binding signal (z-score)	[11]	-0.323
same	glycan array binding signal (z-score)	[20]	-0.187

# Reference: the supplement of paper PMC8728848
